Laboratory results taken from paper PMC8241731.
Results are given in words; binding and its absence hold for the method and conditions named. In cells and extracts the contact can be indirect. Here binding means that the protein was enriched with, or labelled near, the bait; the list need not be complete.

Target: T1, Rac GTPase activating protein 1 (human (endogenous in NOZ and GBC-SD)) (UniProt Q9H0H5)
T1 sequence: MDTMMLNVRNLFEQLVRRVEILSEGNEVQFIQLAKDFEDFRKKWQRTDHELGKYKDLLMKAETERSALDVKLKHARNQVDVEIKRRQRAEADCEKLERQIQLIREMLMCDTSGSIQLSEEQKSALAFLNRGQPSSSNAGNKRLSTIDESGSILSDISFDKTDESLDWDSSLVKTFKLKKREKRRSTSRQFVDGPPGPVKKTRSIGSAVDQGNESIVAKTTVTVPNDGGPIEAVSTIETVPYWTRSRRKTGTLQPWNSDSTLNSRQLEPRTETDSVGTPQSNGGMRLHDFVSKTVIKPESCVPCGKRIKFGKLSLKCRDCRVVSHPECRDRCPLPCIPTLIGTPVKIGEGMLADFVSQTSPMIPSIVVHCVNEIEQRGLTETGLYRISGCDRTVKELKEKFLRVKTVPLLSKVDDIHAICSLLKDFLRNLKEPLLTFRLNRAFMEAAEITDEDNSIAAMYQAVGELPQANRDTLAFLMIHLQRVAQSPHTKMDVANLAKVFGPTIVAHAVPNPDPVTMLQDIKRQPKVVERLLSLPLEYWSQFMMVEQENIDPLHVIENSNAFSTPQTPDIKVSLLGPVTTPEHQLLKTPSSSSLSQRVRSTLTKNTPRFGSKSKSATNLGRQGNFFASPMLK
Assay: affinity purification with mass spectrometry; IP-MS for binding factors of RACGAP1; sample run on a 10% acrylamide gel, in-gel trypsin digestion, MS-MS; candidates with UnquePepCount ≥3, overlapped with the STRING database (interaction score ≥0.900); cell line not stated

binding: binds
B1: DNA ligase 3 (protein, UniProt P49916 43-1009)
chain: LLHGHPLFLRRKPVLSFQGSHLRSRATYLVFLPGLHVGLCSGPCEMAEQRFCVDYAKRGTAGCKKCKEKIVKGVCRIGKVVPNPFSESGGDMKEWYHIKCMFEKLERARATTKKIEDLTELEGWEELEDNEKEQITQHIADLSSKAAGTPKKKAVVQAKLTTTGQVTSPVKGASFVTSTNPRKFSGFSAKPNNSGEAPSSPTPKRSLSSSKCDPRHKDCLLREFRKLCAMVADNPSYNTKTQIIQDFLRKGSAGDGFHGDVYLTVKLLLPGVIKTVYNLNDKQIVKLFSRIFNCNPDDMARDLEQGDVSETIRVFFEQSKSFPPAAKSLLTIQEVDEFLLRLSKLTKEDEQQQALQDIASRCTANDLKCIIRLIKHDLKMNSGAKHVLDALDPNAYEAFKASRNLQDVVERVLHNAQEVEKEPGQRRALSVQASLMTPVQPMLAEACKSVEYAMKKCPNGMFSEIKYDGERVQVHKNGDHFSYFSRSLKPVLPHKVAHFKDYIPQAFPGGHSMILDSEVLLIDNKTGKPLPFGTLGVHKKAAFQDANVCLFVFDCIYFNDVSLMDRPLCERRKFLHDNMVEIPNRIMFSEMKRVTKALDLADMITRVIQEGLEGLVLKDVKGTYEPGKRHWLKVKKDYLNEGAMADTADLVVLGAFYGQGSKGGMMSIFLMGCYDPGSQKWCTVTKCAGGHDDATLARLQNELDMVKISKDPSKIPSWLKVNKIYYPDFIVPDPKKAAVWEITGAEFSKSEAHTADGISIRFPRCTRIRDDKDWKSATNLPQLKELYQLSKEKADFTVVAGDEGSSTTGGSSEENKGPSGSAVSRKAPSKPSASTKKAEGKLSNSNSKDGNMQTAKPSAMKVGEKLATKSSPVKVGEKRKAADETLCQTKVLLDIFTGVRLYLPPSTPDFSRLRRYFVAFDGDLVQEFDMTSATHVLGSRDKNPAAQQVSPEWIWACIRKRRLVAPC
